The values below come from PMC12444563 (ACS Omega, 2025).

Starred links: 1 amine or outer side, 2 acyl side, 3 side chain; linkers in the order of their positions; H or OH if unused. Non-standard residues stand in square brackets, D forms with d. *: point of attachment. Paclitaxel(2'-OCO-DMEDA) = CC(=O)O[C@H]1C(=O)[C@@]2(C)[C@H]([C@H](OC(=O)c3ccccc3)[C@]3(O)C[C@H](OC(=O)[C@H](OC(=O)N(C)CCN(C)*)[C@@H](NC(=O)c4ccccc4)c4ccccc4)C(C)=C1C3(C)C)[C@]1(OC(C)=O)CO[C@@H]1C[C@@H]2O; Fmoc = O=C(OCC1c2ccccc2-c2ccccc21)*; PABC = O=C(OCc1ccc(N[*:1])cc1)[*:2]

One data set in a line: general procedure: Fmoc solid-phase peptide synthesis; Fmoc-Gly-Wang resin (loading: 0.4–0.8 mmol/g); 2-CTC resin for Fmoc-VCit-OH; COMU/DIPEA (Wang resin); HATU/DIPEA (2-CT resin). Particulars: conjugation step.
Substance “Fmoc-GFLG[PABC]-{Paclitaxel(2'-OCO-DMEDA)} (SMILES CC(=O)O[C@H]1C(=O)[C@@]2(C)[C@H]([C@H](OC(=O)c3ccccc3)[C@]3(O)C[C@H](OC(=O)[C@H](OC(=O)N(C)CCN(C)C(=O)OCc4ccc(NC(=O)CNC(=O)[C@H](CC(C)C)NC(=O)[C@H](Cc5ccccc5)NC(=O)CNC(=O)OCC5c6ccccc6-c6ccccc65)cc4)[C@@H](NC(=O)c4ccccc4)c4ccccc4)C(C)=C1C3(C)C)[C@]1(OC(C)=O)CO[C@@H]1C[C@@H]2O)” returned a conjugation yield of 28% yield.

Staying with this data set, now noted: conjugation step, analytical HPLC with diode array UV detector.
For “Fmoc-GFLG[PABC]-{Paclitaxel(2'-OCO-DMEDA)} (SMILES CC(=O)O[C@H]1C(=O)[C@@]2(C)[C@H]([C@H](OC(=O)c3ccccc3)[C@]3(O)C[C@H](OC(=O)[C@H](OC(=O)N(C)CCN(C)C(=O)OCc4ccc(NC(=O)CNC(=O)[C@H](CC(C)C)NC(=O)[C@H](Cc5ccccc5)NC(=O)CNC(=O)OCC5c6ccccc6-c6ccccc65)cc4)[C@@H](NC(=O)c4ccccc4)c4ccccc4)C(C)=C1C3(C)C)[C@]1(OC(C)=O)CO[C@@H]1C[C@@H]2O)”, the “final HPLC purity” value is reported as 96%.

Staying with this data set, now noted: late stage modification step.
The substance “Fmoc-GFLG-N-4-(methyl)-phenyl 4-Nitrophenyl Carbonate” registered a step yield of 78% yield.

The substance Fmoc-GPLG-N-4-(hydroxymethyl)-phenyl showed a step yield of 82% yield.

The substance “Fmoc-GPLG-N-4-(methyloxycarbonyl-(N,N′-dimethylethylenediamine))-phenyl” came in with a step yield of 40% yield.

For Fmoc-GFLG-N-4-(hydroxymethyl)-phenyl, the step yield worked out at 96% yield.

For the substance “Fmoc-GPLG-N-4-(methyl)-phenyl 4-Nitrophenyl Carbonate”, the step yield worked out at 58% yield.

Regarding “Fmoc-GPLG-N-4-(methyloxycarbonyl-(N-Boc-N,N′-dimethylethylenediamine))-phenyl”, the step yield was 69% yield.

“Fmoc-GFLG-N-4-(methyloxycarbonyl-(N,N′-dimethylethylenediamine))-phenyl” displayed a step yield of 88% yield.

For “Fmoc-GFLG-N-4-(methyloxycarbonyl-(N-Boc-N,N′-dimethylethylenediamine))-phenyl”, the step yield stood at 76% yield.

A further data set can be described thus: general procedure: Fmoc solid-phase peptide synthesis; Fmoc-Gly-Wang; COMU/DIPEA (Wang resin); HATU/DIPEA (2-CT resin). The conditions noted are these: whole synthesis.
The substance Fmoc-GPLG-OH came in with a crude yield of 49%.

With Fmoc-GFLG-OH, the crude yield is 80% yield.
